Laboratory results taken from PubChem BioAssay AID1347426 (Functional Genomics Laboratory (NCATS/FGL), 2020).
Out of some 31,000 sequences screened, about 1,400 (4.5%) were called active.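 Rule for the calls: active = median seed-adjusted z-score above 1 or below -1; inactive = the rest.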 The list shows a part of the results.

experiment: Novel Modifiers of Survival Motor Neuron (SMN) Protein: Gene Identification via Genome-wide siRNA Screen; conditions: HEK293T SMN2-luciferase reporter, siRNA knockdown, 72 h; actives lie on both sides;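 note: luminescence tracks full-length SMN protein made from the SMN2 reporter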
Outline: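 Each of three siRNAs per gene is reverse-transfected (1 pmol) into reporter HEK293T cells whose luciferase output tracks SMN protein level. After 72 h culture, ONE-Glo luminescence is control-normalized, log10-transformed and MAD-standardized; Common Seed Analysis deprioritizes seed-driven hits.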

Row | Sequence | median seed-adjusted z-score
1 | GGACUUCUAUAACGUGAGATT against AMPD3 | inactive: -0.0865
2 | AAAUAAUGGUCAAAAGAAUTT against FOXD1 | inactive: -0.659
3 | GGACAUACCUGAAGACUUUTT against SLC16A6 | inactive: 0.195
4 | GCAGCUCCGAAUUCAGGAATT against TFE3 | inactive: -0.0442
5 | ACAGAGAGCUGUUACUAGATT against GPLD1 | inactive: 0.0152
6 | GCUCAACUCUUAUACGACATT against ZNF582 | inactive: -0.421
7 | GGAAAGGACGCAUGGAAUATT against CBX8 | inactive: -0.207
8 | GUCUCCGAUCUGUCCCUGATT against SCRT2 | inactive: 0.404
9 | GCAGCUUCACCUAUCCGAUTT against KLF4 | inactive: 0.883
10 | GGUGUUUAAUGAUGUAGAUTT against UBA3 | inactive: 0.605
11 | CAACAGCAGUGAAUUGAAATT against BMP6 | inactive: 0.301
12 | CCUGAGGACGGGUCAGAUATT against ZNF517 | inactive: 0.0158
13 | GGUCGAGGACUAUUUCUUUTT against NOS2A | inactive: 0.419
14 | GAGUGAACAUUCUCAUAAATT against CUX2 | inactive: 0
15 | CUGCUUAUGUCGUAUCUAATT against PGAP1 | inactive: -0.272
16 | GGAGAAGAACCAUCAGAAUTT against PGRMC2 | inactive: -0.223
17 | GUCUGAUAGAGCAAAGGUATT against FAM98B | inactive: -0.0162
18 | GGAUAGUAAUUGUUGAGGATT against CNTN5 | inactive: -0.236
19 | CAUAUAGCAUUGACUCAAATT against ZNF596 | inactive: 0.486
20 | CCACAACUCUUGAACAUCATT against EIF3I | inactive: -0.0445
21 | CCAUUAUGGUGUCAUUACATT against RORA | inactive: -0.144
22 | CCAUAGUCUUCAUCUACGATT against GPR153 | active: -1.08

Row | Sequence | median seed-adjusted z-score
23 | AAACUGAUGCGUUCAGAUATT against MBNL3 | inactive: -0.189
24 | CCUACAUCAGGAAUACUAATT against GALNTL1 | inactive: -0.234
25 | CUAGAGGUGUCAGAACGAATT against PRKAR2A | inactive: 0.213
26 | GGCUAUUGGUCUUAGACGATT against GPR85 | inactive: 0.0452
27 | GCAAUUACCAGUGAUAACATT against SEC24B | inactive: -0.493
28 | CCUUCAUUGUUGAUCGUUATT against FAT4 | inactive: -0.363
29 | GGCCUGUACCUGCUACAAATT against EPPK1 | inactive: 0.786
30 | GGUGCUAACCGGAUAGUAUTT against LRP6 | inactive: -0.116
31 | CAACGAUUCUUCUUCAAAATT against STAT4 | inactive: 0.734
32 | GGACGUACUGGACAGUGAATT against USP27X | inactive: 0.43
33 | GGAGCUCGAUGAAAUCCGATT against CALN1 | inactive: 0.0753
34 | GGUGAGUGGUUGUUGCUCUTT against DALRD3 | inactive: 0.338
35 | GCUCCACAUUUAUCCAGCATT against ZNF599 | inactive: 0.0896
36 | GGAAUAUCUUUGACGGUUUTT against SCN1A | inactive: 0.031
37 | AACCAAAAUUUAUCACCCUTT against UBE2D4 | inactive: 0.232
38 | GCAGCAUCGUAUCCAUGAATT against KCNB1 | inactive: 0.0206
39 | CCACGUUGAUUCAAGAUCATT against VPS35 | inactive: -0.511
40 | GCAUCUCAGAUGUCAAUAATT against ZNF394 | inactive: -0.462
41 | UCUACUGGUUGGUAACAAATT against RALA | inactive: 0.553
42 | CUUCUAGACCUGCUCCAAATT against ISLR | inactive: 0.00807
43 | GACUUGAUGUCCAAACUGATT against PHF19 | inactive: -0.195
44 | CCAUGUUGCUUCGCAUCAATT against NAPB | inactive: 0.716

Row | Sequence | median seed-adjusted z-score
45 | CGACUUAAAGAAGCAGAUUTT against RBBP6 | inactive: -0.212
46 | GCCUGGAGAUGUUUACCAATT against TRIM63 | inactive: -0.376
47 | GGCACGAGUUUGACAGUGATT against SNX26 | inactive: -0.788
48 | CAGUCAUUCUAAGAGUAGATT against SFRS4 | inactive: 0.239
49 | CCACUCCAUUGAAGAUGUATT against SREBF1 | inactive: -0.0469
50 | GACUCAAUGCUACUAUCAATT against ADAM32 | active: 1.75
51 | CCGUGUGGGUAAACACCUATT against ALDH1B1 | inactive: 0.105
52 | GCUCGUGAUUGAUGCUGCATT against NGB | inactive: 0
53 | GCGUGGUCAUCGUUGUCUUTT against MFSD10 | inactive: 0.0116
54 | GGAUGACCAUGUACCUCUUTT against GPRC5B | inactive: 0
55 | CAUUGACCGAUUGAAGGUATT against APOL3 | inactive: -0.0761
56 | CCUUUGUGGACUACAGUAUTT against RNF166 | inactive: -0.3
57 | GGUUAACCCAGAACGUAAATT against TCP1 | active: -1.02
58 | GGAGAUACCAGGAACCCAATT against SLC7A13 | inactive: 0.121
59 | AACAAUCUGUGGAUGGAAATT against BTF3 | inactive: 0.0468
60 | GUGGUACAAUUUAAUGAUATT against ALDH5A1 | inactive: 0.339
61 | GGAGUGAAAUUUUCUGCAATT against PCNA | inactive: 0.0727
62 | CGUGCAUGCUGUUAAGGAATT against ZNF652 | inactive: 0
63 | GAAUCGACAUUCUCAUUAATT against DECR2 | inactive: 0
64 | CUACAGUGAUGUGGAGAAATT against HPX | inactive: -0.451
65 | CCAUUGACAAUUCAACUUATT against ST8SIA1 | inactive: -0.25
66 | AUACUAACAUUUUCAUUGATT against SSX2 | inactive: -0.583

Row | Sequence | median seed-adjusted z-score
67 | GAUCAAGUAUGGACACUGATT against OGG1 | inactive: -0.128
68 | CCCUGCUCCUCACUCAUUUTT against KRTAP5-5 | active: -1.07
69 | GGAUAAAAGUACUGUAUGATT against DEGS1 | inactive: 0.0268
70 | GCUUCUCACGAGAUUGAAATT against SCARA3 | inactive: -0.05
71 | CAAUGACUGUAGCAUUCAATT against PTPN18 | inactive: -0.206
72 | GUUUGUCUGUCAUUACUCATT against RNMT | inactive: -0.281
73 | CCAGAACCUCAUUGACUUUTT against TSPAN17 | inactive: -0.0774
74 | CCUUCAGCAUGAUCAAAUUTT against ZNF260 | inactive: -0.682
75 | GGACACUUCUUGGAGAUUUTT against FOXE3 | inactive: -0.451
76 | GCUGUUCGCUGAAGGAGGATT against HOXD9 | inactive: -0.123
77 | GCACGGUUCAAGAAAUUGATT against ISOC1 | inactive: 0.104
78 | GGCUUCAGCUGAAUACCAATT against MYLIP | inactive: 0.652
79 | UGACCAGGCACUACCGUAATT against KLF4 | inactive: 0.883
80 | GGCUCAGCAGAUUACCACATT against TAAR5 | inactive: 0.573
81 | GGAACAUCGAAAUCGUGUATT against DDX6 | active: 1.12
82 | GCUUCGAGCUGAUGUGACATT against LGTN | inactive: 0.491
83 | CCGUAAUUGUGGAACAUGUTT against ELF1 | inactive: 0.0269
84 | GCCUCUUGCUAGGCAUAGCTT against CLDN15 | inactive: 0.973
85 | GGAUCUUCGUGGAACGGAUTT against PDE1B | inactive: -0.384
86 | CCCACGAUCUGAAUCAACATT against RNF12 | inactive: 0.29
87 | GGUUAUACUCUGGAUGUAATT against HNRNPR | inactive: 0.308
88 | GGAAAGAAGGGAAUGAGUUTT against ZMAT3 | inactive: 0.979

Row | Sequence | median seed-adjusted z-score
89 | CCCUGACAGAGAUAGAGCATT against RORC | inactive: -0.243
90 | GACUCUUACCGAAGGGUUATT against MATR3 | inactive: -0.259
91 | GGCUGUGCAUAAACGAGAATT against GTF2E1 | active: 1.76
92 | AUAUGAACAUGGGUAUGAATT against ZIC2 | inactive: -0.162
93 | GCUCACAACUUAUUAAACATT against ZNF566 | inactive: 0.0702
94 | GAACAACUGUGCAUUCUUATT against RAP1B | inactive: -0.0262
95 | CAACGAUACCCAGAUCAAATT against CDC45L | inactive: -0.599
96 | GAAGAUCAGUAUAUGAAAATT against BLVRA | inactive: 0.212
97 | CUUACCUGCUUUUCCAUUATT against KRT34 | inactive: 0.124
98 | AGACUGUCGUGGGCUUGUATT against MYH7 | inactive: 0.659
99 | UGAUCAGUCGCAUCGAAUATT against CSNK1D | inactive: 0.202
100 | GCACAAGUGCUGAGCCAGATT against LENG9 | inactive: 0.607
101 | GCUACAAGGAUUUCCAUUUTT against SNRPB2 | inactive: -0.967
102 | CUCAAGCAUUUGUAUCGAATT against PLD5 | inactive: -0.0377
103 | CUAAGCUUCUGGUACAGAATT against CA14 | inactive: -0.308
104 | GGGCAUUUUAGUCAAGAAATT against ZNF383 | inactive: -0.196
105 | GGACCUUCUGAGUACCAGATT against COPS5 | inactive: -0.124
106 | GCAAUGGAGUGACUAAUCUTT against RFXDC2 | inactive: 0.724
107 | AGAUGUACCUGUUCGUGUATT against DNASE1L2 | inactive: -0.228

Reformatted tab-delimited: entries from further up
Row	Sequence	median seed-adjusted z-score
87	GGUUAUACUCUGGAUGUAATT against HNRNPR	inactive: 0.308
88	GGAAAGAAGGGAAUGAGUUTT against ZMAT3	inactive: 0.979
89	CCCUGACAGAGAUAGAGCATT against RORC	inactive: -0.243
90	GACUCUUACCGAAGGGUUATT against MATR3	inactive: -0.259
91	GGCUGUGCAUAAACGAGAATT against GTF2E1	active: 1.76
92	AUAUGAACAUGGGUAUGAATT against ZIC2	inactive: -0.162
93	GCUCACAACUUAUUAAACATT against ZNF566	inactive: 0.0702
94	GAACAACUGUGCAUUCUUATT against RAP1B	inactive: -0.0262
95	CAACGAUACCCAGAUCAAATT against CDC45L	inactive: -0.599
96	GAAGAUCAGUAUAUGAAAATT against BLVRA	inactive: 0.212
97	CUUACCUGCUUUUCCAUUATT against KRT34	inactive: 0.124
98	AGACUGUCGUGGGCUUGUATT against MYH7	inactive: 0.659
99	UGAUCAGUCGCAUCGAAUATT against CSNK1D	inactive: 0.202
100	GCACAAGUGCUGAGCCAGATT against LENG9	inactive: 0.607
101	GCUACAAGGAUUUCCAUUUTT against SNRPB2	inactive: -0.967
102	CUCAAGCAUUUGUAUCGAATT against PLD5	inactive: -0.0377
103	CUAAGCUUCUGGUACAGAATT against CA14	inactive: -0.308
104	GGGCAUUUUAGUCAAGAAATT against ZNF383	inactive: -0.196
105	GGACCUUCUGAGUACCAGATT against COPS5	inactive: -0.124
